# The whole screen tested about 580,000 compounds, of which about 6,100 (1.1%) were called active. The inconclusive results got no clear call from the source; some entries with a clear call stand among them for comparison. The call rests on the fitted dose curve; in most records, active means well fitted inhibition curve with a large enough effect; inconclusive means small, poorly fitted or top-dose-only effect, or another doubt; inactive means no such curve, though single readings can be large or run the other way. Where the call is inconclusive, the potency comes from a doubtful curve fit. Some structures have more than one record in an assay (separate samples or runs), and their calls can disagree.
# Amino acid sequences for entries named in this document (tags omitted). A change or cut given only in a name is not applied to a line headed by its entry.
# UniProt P18054: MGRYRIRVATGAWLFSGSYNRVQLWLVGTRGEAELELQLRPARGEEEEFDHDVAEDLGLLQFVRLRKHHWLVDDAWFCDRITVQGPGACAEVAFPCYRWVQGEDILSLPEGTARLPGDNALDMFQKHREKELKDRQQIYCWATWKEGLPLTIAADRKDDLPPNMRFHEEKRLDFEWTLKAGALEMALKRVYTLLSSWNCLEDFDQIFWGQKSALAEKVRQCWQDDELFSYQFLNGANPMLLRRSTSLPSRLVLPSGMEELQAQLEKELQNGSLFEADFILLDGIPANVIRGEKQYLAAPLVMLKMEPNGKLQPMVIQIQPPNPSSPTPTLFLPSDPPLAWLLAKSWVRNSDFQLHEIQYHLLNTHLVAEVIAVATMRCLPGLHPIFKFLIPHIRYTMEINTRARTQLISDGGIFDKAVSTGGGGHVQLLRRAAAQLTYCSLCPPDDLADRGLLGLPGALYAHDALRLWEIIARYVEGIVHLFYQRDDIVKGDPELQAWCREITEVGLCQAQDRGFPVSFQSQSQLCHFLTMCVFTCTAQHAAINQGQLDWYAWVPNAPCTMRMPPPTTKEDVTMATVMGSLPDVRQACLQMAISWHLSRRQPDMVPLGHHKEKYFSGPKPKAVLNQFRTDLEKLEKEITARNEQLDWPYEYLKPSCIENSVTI
# Molecular target: Polyunsaturated fatty acid lipoxygenase ALOX12 (Homo sapiens) (UniProt P18054)
# Experiment: Primary qHTS assay for inhibitors of human arachidonate 12S-lipoxygenase (ALOX12): Round 2
# Settings: purified 12hLO, xylenol orange hydroperoxide absorbance; activity change, negative = inhibition: at 108 µM (top of the series) unless noted
# Procedure, shortened: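 Purified human 12hLO at 150 nM in 25 mM Hepes, 0.01% Triton X-100, pH 7.0, preincubated 15 min at room temperature with compound. Reaction started with 40 uM arachidonic acid, 30 min at room temperature. Hydroperoxide measured by Fe-xylenol orange, 573/405 nm absorbance ratio.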
# On the % scale 0 is the no-effect control and ±100 the full control effect; potency means the concentration at half of the fitted maximal effect.
SMILES,"activity change, negative = inhibition",Potency
Cc1ccc(C)c(NC(=O)C2CCCN2/C=C/C(=O)C(F)(F)F)c1 (stereo unspecified),inactive: -3.95%,–
O[C@@H]1CC(CNCC2CCCC2)(COc2cccnc2)C[C@@H]1O (stereo partly specified),–,"inconclusive: 22.4 µM [inhibitor, full curve]"
CN(C)[C@@H]1CCC[C@@H]1OC(=O)C(c1ccccc1)c1ccccc1,–,"inconclusive: 56.2 µM [inhibitor, partial curve, poor fit]"
COc1cc(NC(=O)N2CC(C)Oc3ccc(Cl)cc32)cc(OC)c1OC (stereo unspecified),–,"inconclusive: 100 µM [inhibitor, single point]"
COc1cccc(C(=O)Nc2sc3c(c2C(N)=O)CCC(C)C3)c1OC(F)F (stereo unspecified),–,"inconclusive: 28.2 µM [inhibitor, partial curve]"
Cc1ccc(NC(=O)Cn2nnc3sc(-c4ccccc4)cc3c2=O)cc1Cl,–,"inconclusive: 158 µM [inhibitor, partial curve, poor fit]"
COc1cc(C2c3c(-c4ccccc4)n[nH]c3C(=O)N2c2ccccc2)ccc1O (stereo unspecified),inactive: 5.43%,–
CCC(c1nnnn1-c1ccc2c(c1)OCCO2)N1CCN(C(=O)c2ccco2)CC1 (stereo unspecified),–,"inconclusive: 100 µM [inhibitor, single point]"
CCCc1nc2ccc(C(=O)OC)cn2c1Cc1ccccc1,–,"inconclusive: 0.224 µM [inhibitor, full curve, poor fit]"
CCNc1nc(NCc2ccccc2)nc(SCC(=O)Nc2ccccc2)n1,inactive: -25.7%,–
COc1cccc(N=Cc2ccc(O)cc2O)c1,–,"inconclusive: 12.6 µM [inhibitor, partial curve, poor fit]"
CC1(C)CC(C)(c2ccc(O)cc2O)N(c2cccc(Cl)c2)C(=S)N1 (stereo unspecified),–,"inconclusive: 25.1 µM [inhibitor, partial curve, poor fit]"
CCOP(=O)(OCC)C(Nc1ccccc1)c1ccco1 (stereo unspecified),inactive: 0.53%,–
S=c1[nH]c2cc(Cl)c3cccnc3c2o1,–,"inconclusive: 44.7 µM [inhibitor, partial curve, poor fit]"
O=C(Nc1nnc([C@@H]2C[C@H](O)[C@@H](CO)O2)s1)Nc1ccccc1Oc1ccccc1,inactive: -6.52%,–
Cc1ccc(S(=O)(=O)N2CCC(C(=O)N3CCN(c4ccccn4)CC3)CC2)cc1C,inactive: 0.785%,–
O=C(Nc1nnc(C2CC2)s1)c1cc(-c2ccncc2)nc2ccccc12,inactive: 46.6%,–
O=C(NNc1ccc(Cl)cc1)c1sccc1Cl,–,"inconclusive: 31.6 µM [inhibitor, partial curve, poor fit]"
CCC(C)Sc1ccc([C@H]2N[C@@](C)(C(=O)OC)[C@H]3C(=O)N(C)C(=O)[C@@H]23)cc1OC (stereo partly specified),–,"inconclusive: 31.6 µM [inhibitor, single point]"
O=C(OCc1coc(-c2cccs2)n1)c1ccc2c(c1)OCCCO2,–,"inconclusive: 1.78 µM [inhibitor, full curve, poor fit]"
CC(OC(=O)c1c(F)cccc1F)C(=O)NCCC1=CCCCC1 (stereo unspecified),–,"inconclusive: 35.5 µM [inhibitor, partial curve, poor fit]"
O=C(Cc1ccc(F)cc1)NCCn1ccn2nc(-c3ccc(F)cc3)cc2c1=O,–,"inconclusive: 22.4 µM [inhibitor, partial curve]"

SMILES,"activity change, negative = inhibition",Potency
Nc1c(N2CCCC2)c2ccccc2oc1=O,–,"inconclusive: 44.7 µM [inhibitor, partial curve, poor fit]"
c1ccc(OCC2CN(Cc3ccc4[nH]ccc4c3)CC23CN(c2ccccc2)C3)cc1 (stereo unspecified),–,"inconclusive: 50.1 µM [inhibitor, full curve]"
CCN(CC)S(=O)(=O)c1cccc(NC(=S)Nc2ccc(C)c(C)c2)c1,–,"inconclusive: 44.7 µM [inhibitor, partial curve, poor fit]"
O=C1c2ccccc2C(c2nnnn2Cc2ccccc2)N1CCCn1ccnc1 (stereo unspecified),inactive: 12.3%,–
COc1ccc(NC(=O)c2c(-c3c(Cl)cccc3Cl)noc2C)c(OC)c1,inactive: -23.7%,–
CC(C)(C)c1nnc(NC(=O)CS(=O)(=O)Cc2ccccc2)s1,–,active: 39.8 µM
OC(c1ccccc1)(c1ccccc1)C1CCN(CCCOc2ccc3c(c2)CCCC3)CC1,–,"inconclusive: 50.1 µM [inhibitor, partial curve, poor fit]"
O=C(O)c1nc(N2CCOCC2)nc(N2CCOCC2)n1,–,"inconclusive: 6.31 µM [inhibitor, full curve, poor fit]"
C=CCC1C=C(Cc2ccccc2)CC(CC=C)N1 (stereo unspecified),inactive: -6.89%,–
C=C(C)CCC(C)N1CCC(n2nccc2NC(=O)CCCc2ccccc2)CC1 (stereo unspecified),inactive: 42%,–
O=C(CC[C@@H]1CNC(=O)[C@@H]2C[C@H](NCc3ccc(F)cc3)CN12)NCc1ccc(F)cc1,inactive: 16.7%,–
CCCCN1CC(=O)N2[C@@H]3c4cc(OC)ccc4OC[C@@H]3[C@H](C(=O)OCC)[C@]2(C)C1=O,inactive: 9.83%,–
Cc1c(C#N)c(N)nc2c3c(sc12)NC(=O)CC3c1ccccc1Cl (stereo unspecified),–,"inconclusive: 44.7 µM [inhibitor, partial curve, poor fit]"
CCN1CC(CN(C)C(=O)c2nn(-c3ccccc3)c(=O)c3ccccc23)Oc2ccccc21 (stereo unspecified),–,"inconclusive: 112 µM [inhibitor, partial curve, poor fit]"
O=C(NNC(=S)Nc1ccc(F)cc1)C(c1ccccc1)c1ccccc1,–,"inconclusive: 39.8 µM [inhibitor, partial curve, poor fit]"
CC1(C)C(C=C(Cl)Cl)C1C(=O)N1CCN(Cc2ccccc2)CC1 (stereo unspecified),–,"inconclusive: 100 µM [inhibitor, single point]"
COc1ccc(C(=O)N2CCCC(n3cc(-c4nc(-c5ccccc5)no4)nn3)C2)cc1 (stereo unspecified),–,"inconclusive: 28.2 µM [inhibitor, full curve, poor fit]"
O=S(=O)(Nc1nc2ccccc2nc1Cl)c1ccc2ccccc2c1,–,"inconclusive: 50.1 µM [inhibitor, partial curve, poor fit]"
CCc1ccc(Nc2n[n+](-c3ccccc3)c(-c3ccc(C(=O)O)cc3)s2)cc1,–,"inconclusive: 15.8 µM [inhibitor, full curve]"
CCN(CC)/C(Sc1ccccc1)=C(/C(Cl)=C(Cl)Cl)[N+](=O)[O-],–,active: 7.94 µM
CCOC(=O)c1n[nH]n2c1nc(=S)c1ccccc12,–,"inconclusive: 20 µM [inhibitor, partial curve, poor fit]"
CCN1C(=O)CC(C(=O)NC)SC1=Nc1cc(Cl)c(O)c(Cl)c1 (stereo unspecified),inactive: 2.61%,–

SMILES,"activity change, negative = inhibition",Potency
Cc1cccc(Nc2ncc3c(n2)CC(c2ccco2)CC3=O)c1 (stereo unspecified),–,"inconclusive: 28.2 µM [inhibitor, partial curve, poor fit]"
COc1cccc(-c2nn(-c3ccccc3)cc2C(=O)NCC(C)(C)N2CCOCC2)c1,–,"inconclusive: 70.8 µM [inhibitor, single point]"
CC1NC(=O)c2ccccc2-n2c1nc1ccc(F)cc1c2=O (stereo unspecified),inactive: 1.43%,–
CCOC(=O)[C@]12CCCC=C1N(Cc1cccc3ccccc13)C(=O)[C@H](CC(=O)N1CCN(C(=O)c3ccco3)CC1)C2,inactive: -3.91%,–
CC(=O)c1ccc(N(CC(=O)Nc2cc(C)on2)S(=O)(=O)c2ccc(C)cc2)cc1,–,"inconclusive: 89.1 µM [inhibitor, single point]"
O=C(Nc1ccc(F)cc1)c1cc(S(=O)(=O)N2CCCCC2)cs1,inactive: 0%,–
COc1cc(C)c(CN2C[C@H](Sc3ccccn3)C[C@H]2C(=O)N(C)C)cc1C,–,"inconclusive: 100 µM [inhibitor, single point]"
CCN(CC(=O)Nc1c(F)cccc1F)C(=O)c1cc(S(=O)(=O)N(C)C)ccc1N1CCCC1,inactive: -7.76%,–
O=C1CC(C(=O)Nc2ccc(Br)cc2)S/C(=N\N=C\c2ccco2)N1 (stereo unspecified),inactive: 376%,–
CCOc1ccc(NC(=S)Nc2ccc(OCC)cc2)cc1,–,"inconclusive: 17.8 µM [inhibitor, partial curve]"
CC(C)NC(=O)c1nc(-c2ccc3[nH]ccc3c2)no1,inactive: -2.55%,–
O=C1NC(=S)S/C1=C/c1ccc(Oc2cnccn2)cc1,inactive: -12.1%,–
CC(C)(C)c1ccc(C(=O)NCCCN2CCN(CCCNC(=O)c3ccc(C(C)(C)C)cc3)CC2)cc1,–,"inconclusive: 44.7 µM [inhibitor, partial curve, poor fit]"
Clc1cccc(/C=N/Nc2ccc(Cl)c(Cl)c2)c1,–,active: 5.62 µM
Cc1ccc(NC(=O)C2CCN(S(=O)(=O)c3cc([N+](=O)[O-])ccc3Cl)CC2)nc1,inactive: 0%,–
Cc1nc(-c2ccc(Cl)cc2)n(Cc2cc(F)cc(F)c2)c(=O)c1CCO,–,"inconclusive: 3.55 µM [inhibitor, full curve, poor fit]"
Cc1cc(O)c(C(C)C)cc1N=Cc1ccc(N(C)C)cc1,–,"inconclusive: 25.1 µM [inhibitor, single point]"
COc1cc(C(c2c(C)[nH][nH]c2=O)c2c(C)[nH][nH]c2=O)ccc1OCc1ccc([N+](=O)[O-])cc1,–,"inconclusive: 56.2 µM [inhibitor, partial curve, poor fit]"
COc1cc(OC)cc(-c2sc3ccc(OC)cc3c2C#CC(C)(C)O)c1,–,"inconclusive: 56.2 µM [inhibitor, partial curve, poor fit]"
NC(CSC1(c2ccccc2)c2ccccc2-c2ccccc21)C(=O)O (stereo unspecified),–,"inconclusive: 70.8 µM [inhibitor, partial curve, poor fit]"
N#Cc1nc(COc2ccccc2)oc1N1CCN(Cc2ccccc2)CC1,–,"inconclusive: 112 µM [inhibitor, partial curve, poor fit]"
Cc1ccc(NC(=O)C2CSC3(C)CCC(=O)N23)cc1S(=O)(=O)N1CCCCCC1 (stereo unspecified),–,"inconclusive: 112 µM [inhibitor, single point]"

# Random excerpt: 3 entries already listed
SMILES,"activity change, negative = inhibition",Potency
CC(C)(C)c1ccc(C(=O)NCCCN2CCN(CCCNC(=O)c3ccc(C(C)(C)C)cc3)CC2)cc1,–,"inconclusive: 44.7 µM [inhibitor, partial curve, poor fit]"
O=C(Nc1ccc(F)cc1)c1cc(S(=O)(=O)N2CCCCC2)cs1,inactive: 0%,–
CCNc1nc(NCc2ccccc2)nc(SCC(=O)Nc2ccccc2)n1,inactive: -25.7%,–

# Reference: PubChem BioAssay AID1671190 (National Center for Advancing Translational Sciences (NCATS), 2021)
